Some entries share one result that the patent states for a list of compounds. For at least one compound, name, drawing or mass did not settle the structure.
Tests used:
M. incognita = assay: Meloidogyne spp. (Root-knot nematode) contact activity, preventive, drench test (Biological Screen Nem 2); type: in vivo; conditions: cucumber cv. Toshka in pots, 5 ml WP10 suspension at 20 ppm, 3000 eggs of M. incognita, fourteen days, Zeck's gall index
Procedure: Meloidogyne spp. (Root-knot nematode) contact activity, preventive, drench test. Cucumber cv. Toshka seeds were shown directly into pots filled with a sandy substrate. Six days later pots were each treated with 5 ml of a WP10 suspension of the test compound at 20 ppm. Hereafter pots were inoculated with 3000 eggs of M. incognita. The trial was harvested fourteen days after trial application and inoculation. Root galling was assessed according to Zeck's gall index (Zeck, 1971). Biological Screen Nem 2. Meloidogyne spp. (Root-knot nematode) contact activity, preventive, drench test. Values are given in % galling.

[1] = system: Meloidogyne spp. (Root-knot nematode); assay: Meloidogyne spp. (Root-knot nematode) contact activity, preventive, pouch test (Biological Screen Nem 1); type: in vivo; conditions: cucumber cv. Toshka seed, test solution at 200 ppm, 3000 eggs, twelve days, number of galls per root system
Procedure: Meloidogyne spp. (Root-knot nematode) contact activity, preventive. Pouch test. Filter papers (9 cm×4.5 cm) with a small pocket were placed into plastic pouches (12 cm×6 cm). One cucumber cv. Toshka seed was placed in the centre of the filter paper pocket of all the pouches needed for a test. The cucumber seeds in the pouches were treated with test solutions at 200 ppm by pipetting the solution directly over the cucumber seed in the filter paper pocket in the pouch. Prior to application, the compound solution was prepared at twice the concentration required and the egg suspension is prepared with FORL nutrient solution with 3000 eggs/0.5 ml. After applying all the treatments, 3000 eggs (in 0.5 ml of FORL nutrient solution) were pipetted into the pouches. The pouches were incubated in a moist chamber for twelve days and watered regularly to maintain good filter paper moisture essential for the growing cucumber root system. After this period, the filter paper containing the germinated cucumber seedling was removed from the plastic pouch to assess the number of galls caused by Meloidogyne spp. per root system. Biological Screen Nem 1. Meloidogyne spp. (Root-knot nematode) contact activity, preventive. Pouch test. Values are given in % galling.

Compound | reduction of galling compared to the untreated control (M. incognita) | reduction of galling compared to the untreated control [1]
O=C(N[C@@H]1C[C@@H]1c1ccc(Cl)cc1)c1ccccc1C(F)(F)F (racemic) [Compound 67-005] | greater than 80% | –
O=C(N[C@@H]1C[C@@H]1c1ccc(Cl)cc1)c1c(F)cccc1F (racemic) [Compound 67-006] | greater than 80% | –
O=C(N[C@@H]1C[C@@H]1c1ccccc1F)c1c(F)cccc1F (racemic) [Compound 67-007] | greater than 80% | greater than 80%
O=C(N[C@@H]1C[C@@H]1c1ccccc1Cl)c1c(F)cccc1F (racemic) [Compound 67-008] | greater than 80% | –
O=C(N[C@@H]1C[C@@H]1c1ccc(OCc2ccccc2)cc1)c1c(F)cccc1F (racemic) [Compound 67-009] | greater than 80% | –
O=C(N[C@@H]1C[C@@H]1c1ccc(OC(F)F)cc1)c1c(F)cccc1F (racemic) [Compound 67-012] | greater than 80% | –
O=C(N[C@@H]1C[C@@H]1c1ccc(Br)cc1Cl)c1c(F)cccc1F (racemic) [Compound 67-013] | greater than 80% | greater than 80%
O=C(N[C@@H]1C[C@@H]1c1ccc(Cl)cc1Cl)c1ccccc1C(F)(F)F (racemic) [Compound 67-014] | greater than 80% | greater than 80%
O=C(N[C@@H]1C[C@@H]1c1ccc(Br)cc1Cl)c1ccccc1C(F)(F)F (racemic) [Compound 67-015] | greater than 80% | greater than 80%
Cc1ccccc1C(=O)N[C@@H]1C[C@@H]1c1ccc(F)cc1 (racemic) [Compound 67-017] | greater than 80% | greater than 80%
O=C(N[C@@H]1C[C@@H]1c1ccc(F)cc1)c1cccnc1C(F)(F)F (racemic) [Compound 67-020] | greater than 80% | greater than 80%
O=C(N[C@@H]1C[C@@H]1c1ccc(Cl)cc1F)c1c(F)cccc1F (racemic) [Compound 67-021] | greater than 80% | greater than 80%
O=C(N[C@@H]1C[C@@H]1c1ccc(C(F)(F)F)cc1)c1c(F)cccc1F (racemic) [Compound 67-022] | greater than 80% | –
O=C(N[C@@H]1C[C@@H]1c1ccc(Cl)cc1F)c1ccccc1C(F)(F)F (racemic) [Compound 67-024] | greater than 80% | greater than 80%
O=C(N[C@@H]1C[C@@H]1c1ccc(C(F)(F)F)cc1)c1ccccc1C(F)(F)F (racemic) [Compound 67-026] | greater than 80% | –
O=C(N[C@@H]1C[C@@H]1c1ccc(OC(F)(F)F)cc1)c1c(F)cccc1F (racemic) [Compound 67-031] | greater than 80% | –
O=C(N[C@@H]1C[C@@H]1c1ccc(Br)cc1)c1ccccc1C(F)(F)F (racemic) [Compound 67-032] | greater than 80% | –
O=C(N[C@@H]1C[C@@H]1c1ccc(F)cc1)c1ccccc1Cl (racemic) [Compound 67-034] | greater than 80% | greater than 80%
O=C(N[C@@H]1C[C@@H]1c1ccc(F)cc1)c1ccccc1Br (racemic) [Compound 67-035] | greater than 80% | greater than 80%
O=C(N[C@@H]1C[C@@H]1c1ccc(F)cc1)c1ccccc1I (racemic) [Compound 67-036] | greater than 80% | greater than 80%
O=C(N[C@@H]1C[C@@H]1c1ccc(F)cc1)c1cccnc1Cl (racemic) [Compound 67-042] | greater than 80% | greater than 80%
O=C(N[C@@H]1C[C@@H]1c1ccc(OC(F)F)cc1)c1ccccc1F (racemic) [Compound 67-043] | greater than 80% | –
O=C(N[C@@H]1C[C@@H]1c1ccc(OC(F)F)cc1)c1ccccc1Cl (racemic) [Compound 67-044] | greater than 80% | –

Compound | reduction of galling compared to the untreated control (M. incognita) | reduction of galling compared to the untreated control [1]
O=C(N[C@@H]1C[C@@H]1c1ccc(OC(F)F)cc1)c1ccccc1Br (racemic) [Compound 67-045] | greater than 80% | –
O=C(N[C@@H]1C[C@@H]1c1ccc(OC(F)F)cc1)c1ccccc1I (racemic) [Compound 67-046] | greater than 80% | greater than 80%
O=C(N[C@@H]1C[C@@H]1c1ccc(OC(F)F)cc1)c1c(F)cc(F)cc1F (racemic) [Compound 67-049] | greater than 80% | greater than 80%
O=C(N[C@@H]1C[C@@H]1c1ccc(OC(F)F)cc1)c1cccnc1Cl (racemic) [Compound 67-052] | greater than 80% | greater than 80%
N#Cc1ccc([C@H]2C[C@H]2NC(=O)c2ccccc2C(F)(F)F)cc1 (racemic) [Compound 67-053] | greater than 80% | –
O=C(N[C@@H]1C[C@@H]1c1ccc(F)cc1C(F)(F)F)c1c(F)cccc1F (racemic) [Compound 67-054] | greater than 80% | greater than 80%
O=C(N[C@@H]1C[C@@H]1c1ccc(F)cc1C(F)(F)F)c1ccccc1C(F)(F)F (racemic) [Compound 67-055] | greater than 80% | greater than 80%
O=C(N[C@@H]1C[C@@H]1c1ccc(F)cc1Br)c1c(F)cccc1F (racemic) [Compound 67-056] | greater than 80% | greater than 80%
O=C(N[C@@H]1C[C@@H]1c1ccc(F)cc1Br)c1ccccc1C(F)(F)F (racemic) [Compound 67-057] | greater than 80% | greater than 80%
O=C(N[C@@H]1C[C@@H]1c1ccc(F)cc1F)c1c(F)cccc1F (racemic) [Compound 67-062] | greater than 80% | greater than 80%
O=C(N[C@@H]1C[C@@H]1c1ccc(F)cc1F)c1ccccc1C(F)(F)F (racemic) [Compound 67-063] | greater than 80% | greater than 80%
O=C(N[C@@H]1C[C@@H]1c1ccc(F)cc1Cl)c1c(F)cccc1F (racemic) [Compound 67-064] | greater than 80% | greater than 80%
Cc1cccc(F)c1C(=O)N[C@@H]1C[C@@H]1c1ccc(OC(F)F)cc1 (racemic) [Compound 67-069] | greater than 80% | –
COc1cccc(F)c1C(=O)N[C@@H]1C[C@@H]1c1ccc(OC(F)F)cc1 (racemic) [Compound 67-070] | greater than 80% | –
Cc1cccnc1C(=O)N[C@@H]1C[C@@H]1c1ccc(OC(F)F)cc1 (racemic) [Compound 67-072] | greater than 80% | –
Cc1nnccc1C(=O)N[C@@H]1C[C@@H]1c1ccc(OC(F)F)cc1 (racemic) [Compound 67-076] | greater than 80% | –
Cc1occc1C(=O)N[C@@H]1C[C@@H]1c1ccc(OC(F)F)cc1 (racemic) [Compound 67-081] | greater than 80% | –
O=C(N[C@@H]1C[C@@H]1c1ccc(F)cc1)c1ncncc1Cl (racemic) [Compound 67-082] | greater than 80% | –
Cc1occc1C(=O)N[C@@H]1C[C@@H]1c1ccc(F)cc1 (racemic) [Compound 67-083] | greater than 80% | –
Cc1ncccc1C(=O)N[C@@H]1C[C@@H]1c1ccc(F)cc1 (racemic) [Compound 67-084] | greater than 80% | –
Cc1cccc(F)c1C(=O)N[C@@H]1C[C@@H]1c1ccc(F)cc1 (racemic) [Compound 67-089] | greater than 80% | –
COc1cccc(F)c1C(=O)N[C@@H]1C[C@@H]1c1ccc(F)cc1 (racemic) [Compound 67-090] | greater than 80% | –

Reference: patent US9408392B2, “Compounds” (SYNGENTA PARTICIPATIONS AG, priority 2012, dated 2016)
